In the supplement of paper PMC6078165:

System: BT20
Experiment: relative JC-1 red fluorescence (viability) vs pre-drug, coculture with fibroblast (fraction); higher = more viable cancer cells
Experimental: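 JC-1 labelled TNBC cells cocultured 1:1 (1,500 cells each) with CellTrace Violet stained primary or stromal fibroblasts in 384-well plates in FluoroBrite medium, treated with one of 42 anticancer drugs at 0.1, 1, 10 or 100 uM. JC-1 red fluorescence (mitochondrial integrity in cancer cells only) was read by plate reader every 8 h for 72 h. Values are normalised to each well's pre-drug value. The stock of one drug was tenfold lower, so its dose labels may be too high.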

CO[C@@]12[C@H](COC(N)=O)C3=C(C(=O)C(C)=C(N)C3=O)N1C[C@@H]1N[C@@H]12 [Mitomycin C]
relative JC-1 red fluorescence
Details | 8 h | 16 h | 24 h | 32 h | 40 h | 48 h | 56 h | 64 h | 72 h
10 µM, coculture fibroblast: C12385 | 0.9002 | 0.831 | 0.73 | 0.648 | 0.568 | 0.536 | 0.508 | 0.468 | 0.432
10 µM, coculture fibroblast: H6013 | 0.887 | 0.876 | 0.824 | 0.728 | 0.605 | 0.548 | 0.527 | 0.504 | 0.481
10 µM, coculture fibroblast: H6019 | 0.8482 | 0.754 | 0.681 | 0.57 | 0.471 | 0.406 | 0.358 | 0.323 | 0.322
10 µM, coculture fibroblast: H6076 | 0.908 | 0.856 | 0.719 | 0.655 | 0.552 | 0.489 | 0.437 | 0.413 | 0.389
10 µM, coculture fibroblast: H6231 | 0.9043 | 0.934 | 0.776 | 0.6783 | 0.587 | 0.502 | 0.453 | 0.415 | 0.396
10 µM, coculture fibroblast: HADF | 0.778 | 0.91 | 0.787 | 0.692 | 0.591 | 0.536 | 0.507 | 0.491 | 0.462
10 µM, coculture fibroblast: HCFa | 0.953 | 0.8857 | 0.852 | 0.78 | 0.716 | 0.666 | 0.645 | 0.645 | 0.629
10 µM, coculture fibroblast: HCPF | 0.9193 | 0.9511 | 0.817 | 0.749 | 0.653 | 0.58 | 0.522 | 0.495 | 0.468
10 µM, coculture fibroblast: HHSteC | 0.929 | 0.846 | 0.812 | 0.709 | 0.629 | 0.565 | 0.532 | 0.508 | 0.4782
10 µM, coculture fibroblast: HMF | 0.862 | 0.865 | 0.7226 | 0.615 | 0.532 | 0.457 | 0.413 | 0.379 | 0.348
10 µM, coculture fibroblast: HPFa | 0.935 | 0.8286 | 0.82631 | 0.731 | 0.68 | 0.641 | 0.649 | 0.639 | 0.606
10 µM, coculture fibroblast: HUF | 0.894 | 0.7843 | 0.731 | 0.626 | 0.538 | 0.491 | 0.459 | 0.448 | 0.442
10 µM, coculture fibroblast: Hs5 | 0.815 | 0.913 | 0.7727 | 0.6828 | 0.596 | 0.556 | 0.5264 | 0.492 | 0.476
10 µM, coculture fibroblast: Hs27A | 0.812 | 0.824 | 0.806 | 0.848 | 0.926 | 0.874 | 0.873 | 0.889 | 0.884
10 µM, coculture fibroblast: Hs343T | 0.809 | 0.862 | 0.704 | 0.598 | 0.472 | 0.387 | 0.316 | 0.292 | 0.264
10 µM, coculture fibroblast: WS1 | 0.861 | 0.777 | 0.695 | 0.576 | 0.475 | 0.43 | 0.38 | 0.347 | 0.331
100 µM, coculture fibroblast: C12385 | 0.728 | 0.599 | 0.594 | 0.529 | 0.491 | 0.488 | 0.4876 | 0.4844 | 0.48
100 µM, coculture fibroblast: H6013 | 0.789 | 0.668 | 0.721 | 0.6386 | 0.629 | 0.626 | 0.65 | 0.637 | 0.63
100 µM, coculture fibroblast: H6019 | 0.714 | 0.596 | 0.634 | 0.605 | 0.587 | 0.585 | 0.57 | 0.561 | 0.555
100 µM, coculture fibroblast: H6076 | 0.883 | 0.687 | 0.601 | 0.58 | 0.575 | 0.562 | 0.566 | 0.565 | 0.547
100 µM, coculture fibroblast: H6231 | 0.844 | 0.674 | 0.5812 | 0.5514 | 0.5427 | 0.5173 | 0.524 | 0.512 | 0.509
100 µM, coculture fibroblast: HADF | 0.791 | 0.666 | 0.724 | 0.632 | 0.643 | 0.624 | 0.639 | 0.641 | 0.617
100 µM, coculture fibroblast: HCFa | 0.765 | 0.624 | 0.66 | 0.59 | 0.607 | 0.607 | 0.63 | 0.639 | 0.618
100 µM, coculture fibroblast: HCPF | 0.936 | 0.708 | 0.606 | 0.574 | 0.557 | 0.535 | 0.531 | 0.521 | 0.512
100 µM, coculture fibroblast: HHSteC | 0.713 | 0.622 | 0.655 | 0.565 | 0.553 | 0.532 | 0.543 | 0.534 | 0.52
100 µM, coculture fibroblast: HMF | 0.902 | 0.6177 | 0.436 | 0.388 | 0.382 | 0.37 | 0.384 | 0.388 | 0.39
100 µM, coculture fibroblast: HPFa | 0.749 | 0.7051 | 0.7377 | 0.6575 | 0.663 | 0.642 | 0.652 | 0.654 | 0.646
100 µM, coculture fibroblast: HUF | 0.737 | 0.645 | 0.673 | 0.616 | 0.596 | 0.586 | 0.605 | 0.615 | 0.615
100 µM, coculture fibroblast: Hs5 | 0.889 | 0.694 | 0.607 | 0.579 | 0.57 | 0.554 | 0.554 | 0.547 | 0.539
100 µM, coculture fibroblast: Hs27A | 0.863 | 0.75 | 0.838 | 0.781 | 0.789 | 0.811 | 0.841 | 0.745 | 0.81
100 µM, coculture fibroblast: Hs343T | 0.879 | 0.602 | 0.465 | 0.423 | 0.42 | 0.412 | 0.42 | 0.416 | 0.411
100 µM, coculture fibroblast: WS1 | 0.697 | 0.52 | 0.504 | 0.445 | 0.413 | 0.403 | 0.395 | 0.392 | 0.384

Values are relative to the signal before dosing, not to a vehicle control; the signal also falls without drug.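 Fibroblast labels denote human fibroblasts, mainly primary ones from uterus (C12385, HUF), lung (H6013), bone (Hs27A), adrenal (HADF) and skin (WS1), plus mammary HMF and breast cancer-associated Hs343T. Cancer cells are basal-like or mesenchymal-like triple-negative breast cancer lines. A hit is a response shift exceeding 3x replicate standard deviation. The tissue of the other fibroblasts is not given here.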
